{"source": "the supplement of paper PMC8728848", "binders": {"B1": {"name": "Agalectin (Anopheles gambiae) (protein)", "chain": "MSNRPFTAKFPRYPENGDEVFIRGKLKDDAKSFSVNFCLPRPAQVAEHQTPPYIALHFKTIYDERDDTSRVVLNWKNLQWQQEEVLDNYWHVDRSQTFRVVFRLHEDCIKVFVNSVDHPPDYQFPVQLPLDQIESIELWDDVEHVEEISFRYDNGNSY"}}, "experiment_in_all_cases": "glycan array binding signal (z-score within array); higher = stronger binding", "conditions_in_all_cases": "glycan notation: IUPAC condensed, linker removed", "key": {"[1]": {"target": "Gal(b1-4)GlcNAc(b1-2)Man(a1-3)[Gal(b1-4)GlcNAc(b1-2)Man(a1-6)]Man(b1-4)GlcNAc(b1-4)[Fuc(a1-6)]GlcNAc", "summary_of_the_method": "(§1)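 The binding signal is a Z-score computed within each array. Data were drawn from 3228 arrays in the Consortium for Functional Glycomics database, restricted to those with a known protein sequence. Scores were averaged over arrays of the same protein sequence at different concentrations or buffers, and over linkers, and negative values can be taken as non-binding.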"}, "[2]": {"target": "Gal(b1-4)GlcNAc(b1-2)Man(a1-3)[Gal(b1-4)GlcNAc(b1-2)Man(a1-6)][Gal(b1-4)GlcNAc(b1-4)]Man(b1-4)GlcNAc(b1-4)[Fuc(a1-6)]GlcNAc", "summary_of_the_method": "as §1"}, "[3]": {"target": "Gal(b1-4)GlcNAc(b1-2)Man(a1-3)[Gal(b1-4)GlcNAc(b1-2)Man(a1-6)][GlcNAc(b1-4)]Man(b1-4)GlcNAc(b1-4)[Fuc(a1-6)]GlcNAc", "summary_of_the_method": "as §1"}, "[4]": {"target": "Gal(b1-4)GlcNAc(b1-2)Man(a1-3)[GlcNAc(b1-2)Man(a1-6)]Man(b1-4)GlcNAc(b1-4)GlcNAc", "summary_of_the_method": "as §1"}, "[5]": {"target": "Gal(b1-4)GlcNAc(b1-2)Man(a1-3)[GlcNAc(b1-4)][Gal(b1-4)GlcNAc(b1-2)Man(a1-6)]Man(b1-4)GlcNAc(b1-4)GlcNAc", "summary_of_the_method": "as §1"}, "[6]": {"target": "Gal(b1-4)GlcNAc(b1-2)Man(a1-3)[Man(a1-6)]Man(b1-4)GlcNAc(b1-4)GlcNAc", "summary_of_the_method": "as §1"}, "[7]": {"target": "Gal(b1-4)GlcNAc(b1-2)Man(a1-6)Man(b1-4)GlcNAc(b1-4)GlcNAc", "summary_of_the_method": "as §1"}, "[8]": {"target": "Gal(b1-4)GlcNAc(b1-2)Man(a1-6)[GlcNAc(b1-2)Man(a1-3)]Man(b1-4)GlcNAc(b1-4)GlcNAc", "summary_of_the_method": "as §1"}, "[9]": {"target": "Gal(b1-4)GlcNAc(b1-2)Man(a1-6)[Man(a1-3)]Man(b1-4)GlcNAc(b1-4)GlcNAc", "summary_of_the_method": "as §1"}, "[10]": {"target": "Gal(b1-4)GlcNAc(b1-2)[Gal(b1-4)GlcNAc(b1-4)]Man(a1-3)[Gal(b1-4)GlcNAc(b1-2)Man(a1-6)]Man(b1-4)GlcNAc(b1-4)GlcNAc", "summary_of_the_method": "as §1"}, "[11]": {"target": "Gal(b1-4)GlcNAc(b1-2)[Gal(b1-4)GlcNAc(b1-4)]Man(a1-3)[Gal(b1-4)GlcNAc(b1-2)[Gal(b1-4)GlcNAc(b1-6)]Man(a1-6)]Man(b1-4)GlcNAc(b1-4)GlcNAc", "summary_of_the_method": "as §1"}, "[12]": {"target": "Gal(b1-4)GlcNAc(b1-2)[Gal(b1-4)GlcNAc(b1-4)]Man(a1-3)[GlcNAc(b1-4)][Gal(b1-4)GlcNAc(b1-2)Man(a1-6)]Man(b1-4)GlcNAc(b1-4)GlcNAc", "summary_of_the_method": "as §1"}, "[13]": {"target": "Gal(b1-4)GlcNAc(b1-2)[Gal(b1-4)GlcNAc(b1-4)]Man(a1-3)[GlcNAc(b1-4)][Gal(b1-4)GlcNAc(b1-2)[Gal(b1-4)GlcNAc(b1-6)]Man(a1-6)]Man(b1-4)GlcNAc(b1-4)GlcNAc", "summary_of_the_method": "as §1"}, "[14]": {"target": "Gal(b1-4)GlcNAc(b1-2)[Gal(b1-4)GlcNAc(b1-6)]Man(a1-6)[Gal(b1-4)GlcNAc(b1-2)Man(a1-3)]Man(b1-4)GlcNAc(b1-4)GlcNAc", "summary_of_the_method": "as §1"}, "[15]": {"target": "Gal(b1-4)GlcNAc(b1-2)[Gal(b1-4)GlcNAc(b1-6)]Man(a1-6)[Gal(b1-4)GlcNAc(b1-2)Man(a1-3)]Man(b1-4)GlcNAc(b1-4)[Fuc(a1-6)]GlcNAc", "summary_of_the_method": "as §1"}, "[16]": {"target": "Gal(b1-4)GlcNAc(b1-2)[Gal(b1-4)GlcNAc(b1-6)]Man(a1-6)[GlcNAc(b1-4)][Gal(b1-4)GlcNAc(b1-2)Man(a1-3)]Man(b1-4)GlcNAc(b1-4)GlcNAc", "summary_of_the_method": "as §1"}, "[17]": {"target": "Gal(b1-4)GlcNAc(b1-2)[Gal(b1-4)GlcNAc(b1-6)]Man(a1-6)[GlcNAc(b1-4)][Gal(b1-4)GlcNAc(b1-2)[Gal(b1-4)GlcNAc(b1-4)]Man(a1-3)]Man(b1-4)GlcNAc(b1-4)[Fuc(a1-6)]GlcNAc", "summary_of_the_method": "as §1"}, "[18]": {"target": "Gal(b1-4)GlcNAc(b1-3)Gal(b1-3)GalNAc", "summary_of_the_method": "as §1"}, "[19]": {"target": "Gal(b1-4)GlcNAc(b1-3)Gal(b1-3)GlcNAc", "summary_of_the_method": "as §1"}, "[20]": {"target": "Gal(b1-4)GlcNAc(b1-3)Gal(b1-4)Glc", "summary_of_the_method": "as §1"}, "[21]": {"target": "Gal(b1-4)GlcNAc(b1-3)Gal(b1-4)GlcNAc", "summary_of_the_method": "as §1"}, "[22]": {"target": "Gal(b1-4)GlcNAc(b1-3)Gal(b1-4)GlcNAc(b1-2)Man(a1-3)[Gal(b1-4)GlcNAc(b1-3)Gal(b1-4)GlcNAc(b1-2)Man(a1-6)]Man(b1-4)GlcNAc(b1-4)GlcNAc", "summary_of_the_method": "as §1"}, "[23]": {"target": "Gal(b1-4)GlcNAc(b1-3)Gal(b1-4)GlcNAc(b1-2)Man(a1-3)[Gal(b1-4)GlcNAc(b1-3)Gal(b1-4)GlcNAc(b1-2)Man(a1-6)]Man(b1-4)GlcNAc(b1-4)[Fuc(a1-6)]GlcNAc", "summary_of_the_method": "as §1"}}, "note": "The list shows a part of the results."}
{"binder": "B1", "values": [{"measurement": "glycan array binding signal (z-score)", "setting": "[1]", "result": -0.743}, {"measurement": "glycan array binding signal (z-score)", "setting": "[2]", "result": -0.173}, {"measurement": "glycan array binding signal (z-score)", "setting": "[3]", "result": -1.15}, {"measurement": "glycan array binding signal (z-score)", "setting": "[4]", "result": -1.21}, {"measurement": "glycan array binding signal (z-score)", "setting": "[5]", "result": -1.12}, {"measurement": "glycan array binding signal (z-score)", "setting": "[6]", "result": -0.542}, {"measurement": "glycan array binding signal (z-score)", "setting": "[7]", "result": -0.357}, {"measurement": "glycan array binding signal (z-score)", "setting": "[8]", "result": -0.688}, {"measurement": "glycan array binding signal (z-score)", "setting": "[9]", "result": -0.394}, {"measurement": "glycan array binding signal (z-score)", "setting": "[10]", "result": -0.892}, {"measurement": "glycan array binding signal (z-score)", "setting": "[11]", "result": -0.932}, {"measurement": "glycan array binding signal (z-score)", "setting": "[12]", "result": 0.333}, {"measurement": "glycan array binding signal (z-score)", "setting": "[13]", "result": -0.54}, {"measurement": "glycan array binding signal (z-score)", "setting": "[14]", "result": -0.747}, {"measurement": "glycan array binding signal (z-score)", "setting": "[15]", "result": 0.952}, {"measurement": "glycan array binding signal (z-score)", "setting": "[16]", "result": -0.792}, {"measurement": "glycan array binding signal (z-score)", "setting": "[17]", "result": -0.434}, {"measurement": "glycan array binding signal (z-score)", "setting": "[18]", "result": -0.424}, {"measurement": "glycan array binding signal (z-score)", "setting": "[19]", "result": 0.524}, {"measurement": "glycan array binding signal (z-score)", "setting": "[20]", "result": -0.006}, {"measurement": "glycan array binding signal (z-score)", "setting": "[21]", "result": -0.221}, {"measurement": "glycan array binding signal (z-score)", "setting": "[22]", "result": 0.999}, {"measurement": "glycan array binding signal (z-score)", "setting": "[23]", "result": 1.58}]}
